Reference: article PMC6329143
No constants are given. Whether binding was seen depends on the method and setting. In cells and extracts the contact can be indirect. Some entries that bind do so weakly or less than the wild type. Where a sequence is shown, tags or fusion partners need not be part of it.

Amino acid sequences for entries named in this document (tags omitted).
UniProt P15056: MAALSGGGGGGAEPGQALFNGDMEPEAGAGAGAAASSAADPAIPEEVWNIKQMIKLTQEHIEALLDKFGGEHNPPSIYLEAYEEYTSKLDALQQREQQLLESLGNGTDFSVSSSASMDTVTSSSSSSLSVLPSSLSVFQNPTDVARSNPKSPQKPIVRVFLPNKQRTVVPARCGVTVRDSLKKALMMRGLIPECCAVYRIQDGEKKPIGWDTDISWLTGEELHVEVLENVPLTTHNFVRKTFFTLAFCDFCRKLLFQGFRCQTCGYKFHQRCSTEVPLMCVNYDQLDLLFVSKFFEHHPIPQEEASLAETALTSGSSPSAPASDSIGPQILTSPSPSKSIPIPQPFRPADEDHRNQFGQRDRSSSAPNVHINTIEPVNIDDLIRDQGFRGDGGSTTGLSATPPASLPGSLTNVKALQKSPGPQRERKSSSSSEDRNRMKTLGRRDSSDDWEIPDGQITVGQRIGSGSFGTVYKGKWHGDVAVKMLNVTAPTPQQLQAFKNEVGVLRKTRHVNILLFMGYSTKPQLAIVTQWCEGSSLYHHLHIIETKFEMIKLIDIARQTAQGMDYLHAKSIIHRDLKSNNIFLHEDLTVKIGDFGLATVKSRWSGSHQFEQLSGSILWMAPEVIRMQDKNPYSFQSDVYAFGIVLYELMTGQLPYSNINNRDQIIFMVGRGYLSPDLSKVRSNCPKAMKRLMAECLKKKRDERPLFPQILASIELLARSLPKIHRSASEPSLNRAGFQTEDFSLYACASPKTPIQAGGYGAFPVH

Biological target: T1, Heme oxygenase 1 (HA-HO-1) (UniProt P09601)
T1 sequence: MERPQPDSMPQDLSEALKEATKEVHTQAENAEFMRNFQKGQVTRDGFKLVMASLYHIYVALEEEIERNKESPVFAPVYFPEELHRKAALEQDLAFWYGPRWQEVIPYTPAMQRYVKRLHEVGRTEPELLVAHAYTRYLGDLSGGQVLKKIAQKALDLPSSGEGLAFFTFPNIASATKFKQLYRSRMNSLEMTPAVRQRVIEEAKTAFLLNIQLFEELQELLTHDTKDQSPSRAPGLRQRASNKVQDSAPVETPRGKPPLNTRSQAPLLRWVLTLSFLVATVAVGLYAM
Assay: co-IP; Flag-B-Raf co-transfected with or without HA-HO-1 into HEK293T cells; immunoprecipitated with anti-HA antibody, immunoblotted with antibodies against HA and Flag

binding: binds
Substance: B-Raf (Flag-B-Raf) (from UniProt P15056 1-766) (enzyme)
